Source: publication doi:10.1101/2024.07.09.602740
No constants are given. Whether binding was seen depends on the method and setting. Binding calls can cover weak binding; strength is not graded here. Where a sequence is shown, tags or fusion partners need not be part of it.

Target: GFP-tagged SehA toxin (Salmonella enterica HigB-like toxin A), wild type (Salmonella enterica serovar Typhimurium 14028s)
Experiment: pull-down

## His-tagged dsRNA-binding domain (dsRBD) of RNase III (155-227 aa) (from UniProt Q56056 155-226) (domain or fragment)
  binding: binds

B1: His-tagged ribonuclease III (RNase III) of Salmonella (enzyme, UniProt Q56056 1-226)
chain: MNPIVINRLQRKLGYTFNHQELLQQALTHRSASSKHNERLEFLGDSILSFVIANALYHRFPRVDEGDMSRMRATLVRGNTLAELAREFDLGECLRLGPGELKSGGFRRESILADTVEALIGGVFLDSNIQTVEQLILNWYKTRLDEISPGDKQKDPKTRLQEYLQGRHLPLPSYLVVQVRGEAHDQEFTIHCQVSGLSEPVVGTGSSRRKAEQAAAEQALKKLELE
  binding: binds
